Measurements published in article PMC5688218.
No constants are given. Whether binding was seen depends on the method and setting. Some results given as binding are weak or reduced against the parent protein; the word gives no strength.

Sequences of proteins named here, by UniProt entry; tags and fusion partners are left off. Residues count along the entry.
UniProt Q96EQ9: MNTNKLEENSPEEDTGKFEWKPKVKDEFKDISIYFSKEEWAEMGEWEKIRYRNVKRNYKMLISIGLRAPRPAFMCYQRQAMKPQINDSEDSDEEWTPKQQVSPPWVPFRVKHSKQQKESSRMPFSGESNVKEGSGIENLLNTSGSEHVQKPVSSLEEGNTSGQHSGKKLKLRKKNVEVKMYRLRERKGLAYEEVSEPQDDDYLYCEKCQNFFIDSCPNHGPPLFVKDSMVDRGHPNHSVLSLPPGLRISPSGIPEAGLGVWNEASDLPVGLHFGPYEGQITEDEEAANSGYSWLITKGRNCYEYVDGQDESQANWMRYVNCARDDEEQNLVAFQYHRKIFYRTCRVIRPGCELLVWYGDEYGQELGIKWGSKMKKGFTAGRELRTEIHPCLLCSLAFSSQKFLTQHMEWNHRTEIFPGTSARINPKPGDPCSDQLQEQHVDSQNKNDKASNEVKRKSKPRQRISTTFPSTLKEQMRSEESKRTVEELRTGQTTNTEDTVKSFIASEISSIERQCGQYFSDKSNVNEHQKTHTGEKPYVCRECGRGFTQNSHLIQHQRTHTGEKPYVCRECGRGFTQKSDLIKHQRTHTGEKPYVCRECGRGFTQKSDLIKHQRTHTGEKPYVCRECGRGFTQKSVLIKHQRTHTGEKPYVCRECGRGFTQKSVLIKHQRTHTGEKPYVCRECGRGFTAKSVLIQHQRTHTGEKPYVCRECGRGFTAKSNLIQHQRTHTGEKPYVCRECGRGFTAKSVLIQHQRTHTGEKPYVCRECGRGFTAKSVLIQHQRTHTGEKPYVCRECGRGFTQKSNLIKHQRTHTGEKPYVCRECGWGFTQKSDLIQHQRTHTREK
UniProt Q99L90: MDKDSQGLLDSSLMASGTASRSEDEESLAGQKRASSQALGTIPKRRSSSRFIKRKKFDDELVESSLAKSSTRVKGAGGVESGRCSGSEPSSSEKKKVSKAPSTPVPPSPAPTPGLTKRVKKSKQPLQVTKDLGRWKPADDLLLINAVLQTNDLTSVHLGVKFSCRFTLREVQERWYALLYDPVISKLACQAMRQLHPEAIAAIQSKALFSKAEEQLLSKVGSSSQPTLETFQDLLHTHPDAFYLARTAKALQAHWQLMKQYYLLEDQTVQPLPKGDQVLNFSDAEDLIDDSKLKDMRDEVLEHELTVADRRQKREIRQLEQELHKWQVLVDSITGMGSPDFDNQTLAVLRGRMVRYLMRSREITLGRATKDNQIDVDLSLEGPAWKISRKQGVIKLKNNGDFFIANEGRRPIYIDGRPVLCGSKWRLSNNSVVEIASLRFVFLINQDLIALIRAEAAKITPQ
UniProt Q9QWF0, residues 397-911: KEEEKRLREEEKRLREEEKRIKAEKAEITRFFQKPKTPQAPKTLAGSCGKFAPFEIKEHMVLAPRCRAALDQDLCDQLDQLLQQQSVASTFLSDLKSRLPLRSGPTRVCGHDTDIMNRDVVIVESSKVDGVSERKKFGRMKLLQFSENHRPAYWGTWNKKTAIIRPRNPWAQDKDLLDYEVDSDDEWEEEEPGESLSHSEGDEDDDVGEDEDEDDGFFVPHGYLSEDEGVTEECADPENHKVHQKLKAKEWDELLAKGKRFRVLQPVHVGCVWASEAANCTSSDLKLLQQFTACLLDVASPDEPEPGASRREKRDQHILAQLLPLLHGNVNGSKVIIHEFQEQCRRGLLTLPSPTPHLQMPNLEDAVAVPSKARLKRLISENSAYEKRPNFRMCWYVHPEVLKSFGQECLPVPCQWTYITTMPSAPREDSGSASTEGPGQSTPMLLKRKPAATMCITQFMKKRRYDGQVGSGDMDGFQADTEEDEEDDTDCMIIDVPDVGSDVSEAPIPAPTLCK
UniProt Q9CQJ2, residues 42-290: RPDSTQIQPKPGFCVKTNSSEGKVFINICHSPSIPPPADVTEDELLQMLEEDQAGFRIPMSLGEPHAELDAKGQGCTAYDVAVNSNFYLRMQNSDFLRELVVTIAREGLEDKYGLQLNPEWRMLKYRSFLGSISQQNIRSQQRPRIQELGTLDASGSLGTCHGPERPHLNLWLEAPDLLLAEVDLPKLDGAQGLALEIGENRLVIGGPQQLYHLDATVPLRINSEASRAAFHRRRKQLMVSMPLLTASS

The substances below were run against mouse PRDM9, full length (Gal4 BD-PRDM9 FL) (mouse) (UniProt Q96EQ9) (assay: two-hybrid; Gal4 AD fusions (Y187) mated with Gal4 BD fusions (AH109); growth of diploids on −LWH and −LWHAd after 3 days at 30 °C, by streaking or spotting; 5 mM 3-AT added to −LWH for self-activating constructs).
In the case of “mouse MCRS1, full length (Gal4 AD fusion) (from UniProt Q99L90 1-462)”, the binding is reported as “binds”. For “mouse CHAF1A 397–911 (Gal4 AD fusion) (from UniProt Q9QWF0 397-911) (domain or fragment)”, the binding was “binds”. With “mouse PIH1D1 42–290 (Gal4 AD fusion) (from UniProt Q9CQJ2 42-290) (domain or fragment)” the binding was “binds”.
